Experimental data as given in publication PMC4877669.

Chains of the proteins cited; added tags and fusions are not shown.
UniProt P28652: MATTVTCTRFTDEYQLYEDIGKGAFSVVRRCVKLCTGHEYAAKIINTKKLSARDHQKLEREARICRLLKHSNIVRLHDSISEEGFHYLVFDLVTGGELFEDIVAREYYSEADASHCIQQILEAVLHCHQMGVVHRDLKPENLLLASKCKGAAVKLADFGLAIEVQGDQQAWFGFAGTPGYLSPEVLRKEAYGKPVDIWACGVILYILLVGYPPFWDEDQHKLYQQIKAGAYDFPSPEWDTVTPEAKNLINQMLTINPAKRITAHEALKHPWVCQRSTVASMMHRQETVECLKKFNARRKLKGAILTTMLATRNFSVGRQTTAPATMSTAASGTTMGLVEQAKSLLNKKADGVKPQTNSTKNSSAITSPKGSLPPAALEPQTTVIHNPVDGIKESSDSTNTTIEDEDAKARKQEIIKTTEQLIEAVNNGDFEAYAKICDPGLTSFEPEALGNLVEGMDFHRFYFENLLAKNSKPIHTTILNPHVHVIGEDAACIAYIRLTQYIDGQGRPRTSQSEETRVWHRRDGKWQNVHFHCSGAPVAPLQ

T1: activity-regulated cytoskeleton-associated (Arc) protein, endogenous (mouse (endogenous in hippocampus)) (UniProt Q9WV31)
T1 sequence: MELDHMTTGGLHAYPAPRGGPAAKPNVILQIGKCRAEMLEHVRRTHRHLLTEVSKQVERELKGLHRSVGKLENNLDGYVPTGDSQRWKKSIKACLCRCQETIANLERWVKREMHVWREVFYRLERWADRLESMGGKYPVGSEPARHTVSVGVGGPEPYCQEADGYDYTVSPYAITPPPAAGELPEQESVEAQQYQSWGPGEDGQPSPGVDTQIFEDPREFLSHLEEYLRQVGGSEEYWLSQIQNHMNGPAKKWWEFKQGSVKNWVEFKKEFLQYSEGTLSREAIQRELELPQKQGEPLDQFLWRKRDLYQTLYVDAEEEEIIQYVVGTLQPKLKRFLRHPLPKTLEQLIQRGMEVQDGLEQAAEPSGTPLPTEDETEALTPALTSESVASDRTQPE


Target: T1, activity-regulated cytoskeleton-associated (Arc) protein, endogenous (mouse (endogenous in hippocampus))
Assay: affinity purification with mass spectrometry; endogenous Arc immunoprecipitated from mouse hippocampal lysate with rabbit polyclonal anti-Arc antibody and protein G agarose beads, 3 h at 4°C; control: beads without antibody; in-gel tryptic digestion, LTQ-Orbitrap Velos; repeated twice

| binding | Molecule |
| --- | --- |
| binds | CamKII β subunit, endogenous (from UniProt P28652 1-542) |
| binds | dynamin 1, endogenous (protein, UniProt P39053-6 1-864) MGNRGMEDLIPLVNRLQDAFSAIGQNADLDLPQIAVVGGQSAGKSSVLENFVGRDFLPRGSGIVTRRPLVLQLVNSTTEYAEFLHCKGKKFTDFEEVRLEIEAETDRVTGTNKGISPVPINLRVYSPHVLNLTLVDLPGMTKVPVGDQPPDIEFQIRDMLMQFVTKENCLILAVSPANSDLANSDALKIAKEVDPQGQRTIGVITKLDLMDEGTDARDVLENKLLPLRRGYIGVVNRSQKDIDGKKDITAALAAERKFFLSHPSYRHLADRMGTPYLQKVLNQQLTNHIRDTLPGLRNKLQSQLLSIEKEVDEYKNFRPDDPARKTKALLQMVQQFAVDFEKRIEGSGDQIDTYELSGGARINRIFHERFPFELVKMEFDEKELRREISYAIKNIHGIRTGLFTPDMAFETIVKKQVKKIREPCLKCVDMVISELISTVRQCTKKLQQYPRLREEMERIVTTHIREREGRTKEQVMLLIDIELAYMNTNHEDFIGFANAQQRSNQMNKKKTSGNQVIRKGWLTINNIGIMKGGSKEYWFVLTAENLSWYKDDEEKEKKYMLSVDNLKLRDVEKGFMSSKHIFALFNTEQRNVYKDYRQLELACETQEEVDSWKASFLRAGVYPERVGDKEKASETEENGSDSFMHSMDPQLERQVETIRNLVDSYMAIVNKTVRDLMPKTIMHLMINNTKEFIFSELLANLYSCGDQNTLMEESAEQAQRRDEMLRMYHALKEALSIIGDINTTTVSTPMPPPVDDSWLQVQSVPAGRRSPTSSPTPQRRAPAVPPARPGSRGPAPGPPPAGSALGGAPPVPSRPGASPDPFGPPPQVPSRPNRAPPGVPSRKGPASPTRPAAPRPTEAPLLDL |

No constants are given. Whether binding was seen depends on the method and setting. Binding seen in cells or lysates may run through a third protein. Here binding means that the protein was enriched with, or labelled near, the bait; the list need not be complete.
